This assay addresses embryonic ectoderm development (EED) (human (endogenous in K562)) (UniProt O75530). The assay can be described thus: co-IP; immunoprecipitation (Figure S1); cells, bait and antibody not told in the text shown.

The chains behind the UniProt entries cited, without tags or fusion partners.
UniProt O75530: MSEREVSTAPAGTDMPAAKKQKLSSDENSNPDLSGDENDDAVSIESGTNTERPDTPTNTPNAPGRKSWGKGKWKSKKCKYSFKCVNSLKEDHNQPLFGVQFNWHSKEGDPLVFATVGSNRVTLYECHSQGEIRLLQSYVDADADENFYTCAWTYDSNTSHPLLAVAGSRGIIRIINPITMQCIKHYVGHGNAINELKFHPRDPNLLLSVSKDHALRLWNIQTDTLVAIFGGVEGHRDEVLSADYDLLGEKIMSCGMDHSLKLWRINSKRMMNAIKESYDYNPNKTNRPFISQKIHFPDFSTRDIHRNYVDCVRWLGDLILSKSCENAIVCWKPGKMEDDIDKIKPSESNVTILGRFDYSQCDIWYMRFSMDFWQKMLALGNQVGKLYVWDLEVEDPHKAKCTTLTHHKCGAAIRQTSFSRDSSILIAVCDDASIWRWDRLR
UniProt P35226: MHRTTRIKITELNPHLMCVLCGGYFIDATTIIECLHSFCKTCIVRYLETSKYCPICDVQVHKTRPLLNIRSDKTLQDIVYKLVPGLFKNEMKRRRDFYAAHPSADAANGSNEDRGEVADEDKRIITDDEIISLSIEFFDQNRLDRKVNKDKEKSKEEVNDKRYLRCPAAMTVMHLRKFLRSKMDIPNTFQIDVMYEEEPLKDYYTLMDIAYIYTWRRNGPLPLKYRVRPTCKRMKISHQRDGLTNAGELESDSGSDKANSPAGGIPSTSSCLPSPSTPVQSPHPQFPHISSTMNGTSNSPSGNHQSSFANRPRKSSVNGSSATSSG
UniProt Q99496: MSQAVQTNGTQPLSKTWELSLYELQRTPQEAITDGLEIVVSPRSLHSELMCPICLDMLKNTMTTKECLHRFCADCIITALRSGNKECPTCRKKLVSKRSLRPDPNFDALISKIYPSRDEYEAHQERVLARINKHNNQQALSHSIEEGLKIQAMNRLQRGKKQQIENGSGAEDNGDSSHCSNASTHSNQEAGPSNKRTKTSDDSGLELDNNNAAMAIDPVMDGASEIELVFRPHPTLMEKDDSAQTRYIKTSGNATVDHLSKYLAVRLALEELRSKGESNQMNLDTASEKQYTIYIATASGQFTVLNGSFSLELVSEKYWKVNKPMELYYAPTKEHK

Results are given in words; binding and its absence hold for the method and conditions named. In cells and extracts the contact can be indirect. Some results given as binding are weak or reduced against the parent protein; the word gives no strength.

As to “B cell-specific Moloney murine leukemia virus integration site 1 (BMI1) (from UniProt P35226 1-326)”, the binding result is “binds”.
“really interesting new gene 1B (RING1B) (from UniProt Q99496 1-336)”: the binding entry is reported as “binds”.

The values above are taken from paper PMC10074066.
